The record followed here is patent US6028061A, “Angiogenesis inhibitors and use thereof” (Children's Medical Center Corp, priority 1998, dated 2000).

The data set relates to FGF-2. The data set can be described thus: Isothermal titration calorimetry of glycosaminoglycan binding to FGF-2. To be noted: for ΔH: 50 mM sodium phosphate pH 7.4, 100 mM NaCl, 25° C; for avg. binding site size (size of oligosaccharide occupied by a single FGF2 molecule): 2(MW/disaccharide unit mass)/n. As to the method: Interaction of glycosaminoglycans and their derivatives with FGF-2. Isothermal titration calorimetry was performed in 50 mM sodium phosphate buffer, pH 7.4, containing 100 mM sodium chloride at 25° C. as previously described (15).
Determination of the FGF-2 binding affinity of glycosaminoglycans and their derivatives. Isothermal titration calorimetry was performed with heparin oligosaccharides, herapin, acharan sulfate and N-sulfoacharan sulfate. The heat of interaction (ΔH) is directly measured in this experiment. From this heat of interaction the Kd, and n (stoichiometry) of interaction can be deduced. The minimum FGF-2 binding site is a tetra- or hexasaccharide. […] The n value is consistent with the molecular weight of each ligand (Table 2).
In general terms: In ITC the heat of successive injections is recorded.

For “Low molecular weight heparin [reference compound]”, the ΔH is -13.4 kcal/mol and the “avg. binding site size (size of oligosaccharide occupied by a single FGF2 molecule)” value is on record as “tetrasaccharide”.
As to “→4)GlcNp2S(1→4)IdoAp2S(1→ [N-sulfoacharan sulfate]”, the ΔH is -15.4 kcal/mol and the “avg. binding site size (size of oligosaccharide occupied by a single FGF2 molecule)” value is listed as “hexasacchar”.
The like results for “→4)GlcNpAc(1→4)IdoAp2S(1→ [Acharan sulfate]” were, in that order, -15.1 kcal/mol and “octasaccharid”.
